Measured values: PubChem BioAssay AID2417 (National Center for Advancing Translational Sciences (NCATS), 2010)
Among all 140,000 compounds or so, about 4,300 (3.1%) were called active. The inconclusive results got no clear call from the source; some entries with a clear call stand among them for comparison.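 Rule for the calls: active = readout at or below -70, meaning at least 70% loss of cells showing the perinucleolar compartment, a nuclear body marking cancer cells; inconclusive = readout between -30 and a set limit; inactive = the rest.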

Experiment: High Content Assay for Compounds that inhibit the Assembly of the Perinucleolar Compartment;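 note: plate controls were DMSO wells for no effect and camptothecin positive control wells for full effect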
Conditions: PC3M PTB-GFP, PNC prevalence imaging, 16 h; at 10 µM; hits give low values
Method in brief: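 PC3M cells stably expressing PTB-GFP, 750–1000 cells/well, treated 16 h at 37 °C with compound (23 nl of library stock), in duplicate. After paraformaldehyde fixation and Hoechst stain, imaged at 20x; PNC prevalence scored by image analysis.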

| SMILES | activity change (PNC), negative = inhibition |
| --- | --- |
| Cc1nnc(N(Cc2ccco2)C(=O)c2cccc(C#N)c2)s1 | inconclusive: -36.4% |
| O=S(=O)(NC1CCCC1)c1cccc(S(=O)(=O)N2CCC(n3nnc4ccccc43)CC2)c1 | inconclusive: -72.4% |
| CC(C)NC(=O)CSc1nncn1-c1ccccc1 | active: -97.3% |
| COC(=O)C1=C(C)N=C2SC(C#N)=C(N)N2C1c1cc(OC)c(OC)c(OC)c1 (stereo not given) | inactive: 1.96% |
| COc1cc(C(=O)N/N=C/c2cc([N+](=O)[O-])cs2)cc(OC)c1OC | active: -103% |
| Cc1ccc(NC(=O)c2ccc(OC(=S)N3CCOCC3)cc2)cc1 | inconclusive: -46.9% |
| CSCc1ccc(C(=O)NCc2ccccc2)cc1 | inconclusive: -36.1% |
| CCOC(=O)C(C)Oc1cccc2c(=O)n(CC(=O)NCc3ccco3)ccc12 (stereo not given) | inconclusive: -45% |
| Cc1ccc(C(=O)n2c3ccccc3c3ccccc32)cc1 | inconclusive: -45.2% |
| O=C(COC(=O)CCN1C(=O)c2ccccc2C1=O)Nc1ccc(S(=O)(=O)N2CCCC2)cc1 | inactive: 9.61% |
| CCOc1ccc(C(=O)OCn2nnc3ccccc3c2=O)cc1OC | inconclusive: -33% |
| Cn1c(SCC(=O)N2CCc3ccccc32)nnc1-c1ccc(S(=O)(=O)N2CCCC2)cc1 | inconclusive: -48.1% |
| Cc1ccc(N=Cc2sccc2C)cc1C | inactive: 0.929% |
| CC(C)NC(=O)CSc1nnc(-c2ccncc2)n1-c1ccccc1 | inconclusive: -40.9% |
| Cc1cc(C)c2nc(SCC(=O)NCCC3=CCCCC3)cc(C)c2c1 | inconclusive: -39.3% |
| CCCC1CC(C)(c2csc(Nc3ccc(OCC)cc3)n2)OC1=O (stereo not given) | inconclusive: -64.2% |
| O=C(NCc1cccnc1)c1ccc2c(=O)n(CCCN3CCCC3=O)c(=S)[nH]c2c1 | inconclusive: -41.1% |
| CN(CC(=O)N1CCCCC1)S(=O)(=O)c1cccc2cccnc12 | inactive: 13.3% |
| COCC(=O)Nc1ccc(-c2cn3cccnc3n2)cc1 | inactive: 14.2% |
| O=C(COc1ccccc1)N1CCc2ccccc2C1 | inconclusive: -31.3% |
| Nc1cc(C(F)(F)F)ccc1C(=O)O | inactive: -2.65% |
| CCc1nc2c(sc3nc4c(cc32)COC(C)(C)C4)c(=O)n1Cc1ccccc1 | inactive: 36.3% |
| CCCN1C(=O)/C(=c2\s/c(=C3\C=Cc4ccccc4N3CC)c(=O)n2-c2ccccc2)SC1=S | inconclusive: -41.2% |

For convenience, eleven of the compounds above.

| SMILES | activity change (PNC), negative = inhibition |
| --- | --- |
| COc1cc(C(=O)N/N=C/c2cc([N+](=O)[O-])cs2)cc(OC)c1OC | active: -103% |
| Cc1ccc(NC(=O)c2ccc(OC(=S)N3CCOCC3)cc2)cc1 | inconclusive: -46.9% |
| CSCc1ccc(C(=O)NCc2ccccc2)cc1 | inconclusive: -36.1% |
| CCOC(=O)C(C)Oc1cccc2c(=O)n(CC(=O)NCc3ccco3)ccc12 (stereo not given) | inconclusive: -45% |
| Cc1ccc(C(=O)n2c3ccccc3c3ccccc32)cc1 | inconclusive: -45.2% |
| O=C(COC(=O)CCN1C(=O)c2ccccc2C1=O)Nc1ccc(S(=O)(=O)N2CCCC2)cc1 | inactive: 9.61% |
| CCOc1ccc(C(=O)OCn2nnc3ccccc3c2=O)cc1OC | inconclusive: -33% |
| Cn1c(SCC(=O)N2CCc3ccccc32)nnc1-c1ccc(S(=O)(=O)N2CCCC2)cc1 | inconclusive: -48.1% |
| Cc1ccc(N=Cc2sccc2C)cc1C | inactive: 0.929% |
| CC(C)NC(=O)CSc1nnc(-c2ccncc2)n1-c1ccccc1 | inconclusive: -40.9% |
| Cc1cc(C)c2nc(SCC(=O)NCCC3=CCCCC3)cc(C)c2c1 | inconclusive: -39.3% |

More compounds.

| SMILES | activity change (PNC), negative = inhibition |
| --- | --- |
| C=CCn1c(SCc2ccccc2)nc(O)cc1=O | inconclusive: -40.1% |
| Cc1ccccc1Nc1nc(CSc2nnnn2-c2ccccc2)cs1 | inactive: 32.1% |
| COc1cc(/C=N/O)cc(Br)c1OCc1ccc(Cl)cc1 | inconclusive: -34.5% |
| COc1ccc(-c2cc(C(F)(F)F)nc(SCC(=O)NCc3ccco3)n2)cc1OC | inconclusive: -33.2% |
| N#Cc1c(-c2ccco2)nc(NCC2CCCO2)[nH]c1=O (stereo not given) | inconclusive: -40.4% |
| Cc1ccc(C(=O)NC(=S)NCC(=O)c2ccccc2)cc1 | inactive: -29.1% |
| CCCCNC(=O)OCCNC(=O)Oc1cccc(C)c1 | inconclusive: -52.7% |
| O=c1oc2ccccc2c(Nc2ccc3ncccc3c2)c1[N+](=O)[O-] | inconclusive: -33.7% |
| O=[N+]([O-])c1cccc2ccc(/C=C/c3ccc(C(F)(F)F)cc3)nc12 | inconclusive: -58.7% |
| COCC(=O)/C=C1\Sc2ccccc2N1C | inconclusive: -48% |
| CCOc1ccccc1NC(=O)C1CCCN(C(=O)Nc2ccccc2)C1 (stereo not given) | inconclusive: -56% |
| CCOC(=O)C1=C(O)/C(=C/c2cc(OC)c(O)c(OC)c2)SC1=Nc1ccc(OC)cc1 | inconclusive: -50.9% |
| Cn1ccnc1SCC(=O)Nc1ccc2nc(SCC(=O)NC3CC3)sc2c1 | inconclusive: -43.1% |
| CC(=O)N1CCN(CCN=CC2=C(O)CC(c3ccco3)CC2=O)CC1 (stereo not given) | inconclusive: -41.1% |
| S=c1[nH]nc(COc2ccccc2)n1/N=C/C(Cl)=C/c1ccccc1 | inactive: 40.4% |
| Cc1nc2ncnn2c(N2CCN(c3cccc(C(F)(F)F)c3)CC2)c1C | inconclusive: -44.3% |
| CCCC(=N)C1=C(O)CC(CC(C)SCC)CC1=O (stereo not given) | inactive: 34.3% |
| O=C(COc1ccc2ccccc2c1)NNC(=O)Cc1ccccc1 | inactive: 2.03% |
| Cc1ccc2c(c1)C(c1ccncc1)=NNC(c1ccc(C(C)C)cc1)=N2 | inconclusive: -33.8% |
| Cc1cc(C)c2c(n1)sc1c(N3CCN(CCO)CC3)ncnc12 | inconclusive: -35.9% |
| Cc1cc(N2C(=O)C(=O)/C(=C(/O)c3ccc(Cl)cc3)C2c2cccc(Br)c2)no1 (stereo not given) | inconclusive: -36.3% |
| CCOc1ccc(CN(C(=O)c2cc3ccccc3oc2=O)C2CC2)cc1 | active: -100% |
